Experimental data published in paper PMC7782792.

Protein sequences, listed by entry. Tags and fused reporters are not part of them. Lines headed by an entry give the natural chain unless they say otherwise; changes in a name come on top. Residues count along the entry.
UniProt P10636: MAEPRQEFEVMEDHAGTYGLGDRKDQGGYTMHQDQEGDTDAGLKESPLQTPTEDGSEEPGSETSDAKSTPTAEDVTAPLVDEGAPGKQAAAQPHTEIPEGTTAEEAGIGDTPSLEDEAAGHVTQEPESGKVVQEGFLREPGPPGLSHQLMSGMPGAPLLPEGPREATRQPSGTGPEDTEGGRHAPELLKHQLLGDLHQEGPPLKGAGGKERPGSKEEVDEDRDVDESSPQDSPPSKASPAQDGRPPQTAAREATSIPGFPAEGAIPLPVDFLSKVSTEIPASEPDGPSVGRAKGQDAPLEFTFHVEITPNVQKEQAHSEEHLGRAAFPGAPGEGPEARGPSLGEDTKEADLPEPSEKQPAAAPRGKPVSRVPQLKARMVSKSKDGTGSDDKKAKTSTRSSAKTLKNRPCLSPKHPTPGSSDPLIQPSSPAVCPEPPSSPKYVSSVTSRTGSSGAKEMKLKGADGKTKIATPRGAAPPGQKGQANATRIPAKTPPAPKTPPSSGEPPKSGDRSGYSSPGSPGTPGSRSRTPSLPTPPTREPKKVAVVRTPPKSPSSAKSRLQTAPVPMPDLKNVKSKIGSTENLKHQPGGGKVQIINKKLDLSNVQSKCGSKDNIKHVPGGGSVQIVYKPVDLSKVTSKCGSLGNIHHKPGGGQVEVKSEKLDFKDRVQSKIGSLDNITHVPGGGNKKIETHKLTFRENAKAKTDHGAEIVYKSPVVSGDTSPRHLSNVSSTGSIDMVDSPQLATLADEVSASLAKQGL
UniProt P06756, residues 31-992: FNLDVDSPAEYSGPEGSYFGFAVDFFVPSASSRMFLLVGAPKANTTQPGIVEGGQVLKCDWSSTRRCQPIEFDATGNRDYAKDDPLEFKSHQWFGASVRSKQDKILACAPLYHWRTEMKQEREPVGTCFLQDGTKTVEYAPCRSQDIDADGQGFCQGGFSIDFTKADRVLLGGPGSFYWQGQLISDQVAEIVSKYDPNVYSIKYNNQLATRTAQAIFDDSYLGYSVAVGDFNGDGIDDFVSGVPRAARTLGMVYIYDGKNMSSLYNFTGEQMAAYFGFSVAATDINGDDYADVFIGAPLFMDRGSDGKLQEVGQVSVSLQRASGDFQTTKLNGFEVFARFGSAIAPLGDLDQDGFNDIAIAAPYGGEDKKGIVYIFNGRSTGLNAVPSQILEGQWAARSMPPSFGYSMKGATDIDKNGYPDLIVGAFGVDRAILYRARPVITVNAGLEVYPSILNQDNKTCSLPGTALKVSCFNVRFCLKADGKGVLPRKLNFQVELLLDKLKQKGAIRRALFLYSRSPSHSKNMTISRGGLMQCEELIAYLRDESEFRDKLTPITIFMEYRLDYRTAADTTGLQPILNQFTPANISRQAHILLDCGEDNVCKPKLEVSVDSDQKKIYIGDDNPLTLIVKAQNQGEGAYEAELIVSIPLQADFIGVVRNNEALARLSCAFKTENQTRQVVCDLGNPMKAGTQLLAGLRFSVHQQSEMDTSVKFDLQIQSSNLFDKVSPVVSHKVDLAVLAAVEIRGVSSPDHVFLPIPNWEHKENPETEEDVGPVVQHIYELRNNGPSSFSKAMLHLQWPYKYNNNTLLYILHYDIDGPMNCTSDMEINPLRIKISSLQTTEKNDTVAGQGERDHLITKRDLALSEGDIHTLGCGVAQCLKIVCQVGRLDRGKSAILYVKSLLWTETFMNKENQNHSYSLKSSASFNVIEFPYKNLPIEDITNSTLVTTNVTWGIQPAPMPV
UniProt P05556: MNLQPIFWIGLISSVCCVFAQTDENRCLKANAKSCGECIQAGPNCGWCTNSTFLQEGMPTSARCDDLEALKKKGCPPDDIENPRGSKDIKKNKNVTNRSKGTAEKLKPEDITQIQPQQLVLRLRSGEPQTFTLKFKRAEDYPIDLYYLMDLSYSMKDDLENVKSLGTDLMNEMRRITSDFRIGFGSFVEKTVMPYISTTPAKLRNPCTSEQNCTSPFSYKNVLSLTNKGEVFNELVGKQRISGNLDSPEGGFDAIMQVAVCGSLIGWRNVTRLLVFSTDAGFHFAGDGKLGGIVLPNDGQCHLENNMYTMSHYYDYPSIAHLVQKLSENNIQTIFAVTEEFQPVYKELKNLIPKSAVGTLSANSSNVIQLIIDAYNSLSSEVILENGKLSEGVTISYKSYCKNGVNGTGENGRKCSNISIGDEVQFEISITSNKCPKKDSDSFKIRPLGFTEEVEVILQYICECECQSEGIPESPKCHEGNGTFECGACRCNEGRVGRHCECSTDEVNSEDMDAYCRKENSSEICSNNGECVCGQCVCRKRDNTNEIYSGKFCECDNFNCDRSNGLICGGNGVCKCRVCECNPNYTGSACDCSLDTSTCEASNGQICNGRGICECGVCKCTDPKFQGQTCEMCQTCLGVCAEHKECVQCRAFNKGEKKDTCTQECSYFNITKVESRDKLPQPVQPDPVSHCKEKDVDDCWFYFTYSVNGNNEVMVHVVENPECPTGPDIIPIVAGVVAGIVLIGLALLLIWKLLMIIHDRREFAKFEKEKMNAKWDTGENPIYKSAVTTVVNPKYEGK

Molecular target: Tau-APEX2 (APEX2 fused to the C-terminus of Tau) (human) (UniProt P10636)
Assay: co-IP; Tau-APEX2 incubated with purified ITGαV/β1 ectodomains; immunoprecipitation of Tau; immunoblotting; both purified

Substance | binding
purified ITGαV ectodomain (of purified ITGαV/β1 ectodomains) (from UniProt P06756 31-992) (domain or fragment) | binds
purified ITGβ1 ectodomain (of purified ITGαV/β1 ectodomains) (from UniProt P05556 21-728) (domain or fragment) | binds

No constants are given. Whether binding was seen depends on the method and setting. Binding seen in cells or lysates may run through a third protein. Binding can be weak; no strength is given.
